Data taken from article PMC6864781, “Synthesis, Antitumor Activity, and Docking Analysis of New Pyrido[3′,2′:4,5]furo(thieno)[3,2-d]pyrimidin-8-amines” (Molecules, 2019).

System: DNA of tumor sarcoma 180 (S-180)
Experiment: Influence on methylation of DNA of tumor sarcoma 180 in vitro (5-MC content)
Format: cell-based
Settings: 3 × 10^−6 M compound, tumor homogenate, 24 h at 37 °C; S-180 control 42.66
Experimental: It is known that DNA methylation in cancer plays a variety of roles, helping to change the healthy regulation of gene expression to a disease pattern. DNA hypermethylation in neoplasia is a specific epigenetic sign that can guide the diagnosis and treatment of this disease. We studied the effect of synthesized substances on tumor DNA in vitro. After the incubation of tumor cells with the studied compounds, the isolated DNA was hydrolyzed to nitrogen bases. In the studied DNA, the nucleotide composition (guanine (G), cytosine (C), 5-methylcitosine (5-MC), adenine (A), thymine (T)) complied with the rules of Chargaff. Isolated DNA belonged to the AT type, and the amount of basic bases (G + C + 5-MC) within them was 42.24–44.64 mol %, which is typical for eukaryotic DNA. Almost the same content of basic bases (G, C, A, and T) was observed, while a clear difference between DNA samples was found only in relation to the content of 5-MC, which indicated the demethylating ability of the compounds.
The influence of synthesized compounds on the methylation of DNA of tumor sarcoma 180 (S-180) was studied in vitro. Transplanted S-180 was isolated from animals after slaughter by decapitation under ether narcosis. A 3 × 10^−6 M solution of compounds (solvent: carboxymethylcellulose) was added to the tumor homogenate (12.5 mL of a solution per 10 g of tumor), and the mixture was incubated for 24 h at 37 °C. After the incubation, tumor DNA was extracted using the phenol–chloroform method. Hydrolysis to the nitrogen bases was carried out in sealed glass ampoules in 85% formic acid at 176 °C for 1 h (0.1 mL of acid per 1 mg of DNA). The separation of nitrogen bases (guanine (G), cytosine (C), 5-methylcitosine (5-MC), adenine (A), and thymine (T)) was produced by thin-layer chromatography in the solvent n-butanol/water/ammonia. Spectrophotometry of the eluates of all bases was made against eluates from the respective control areas of the chromatograms. In our studies, the well-known antitumor drug doxorubicin (manufactured by EBEWE Pharma Ges.m.b.H. Nfg. KG, 4866 Unterach, Austria) was used as a standard preparation. The data were statistically processed using Student’s and Fischer’s tests (p < 0.05).

Row | SMILES | Content of Bases in DNA, G + C + 5-MC [mol %]
1 | c1coc(-c2nc3sc4c(N5CCCCC5)ncnc4c3c3c2CCCC3)c1 [Compound 5a, 5-(2-Furyl)-8-piperidin-1-yl-1,2,3,4-tetrahydropyrimido[4′,5′:4,5]thieno[2,3-c]isoquinoline] | 42.50
2 | CC1CCN(c2ncnc3c2sc2nc(-c4ccco4)c4c(c23)CCCC4)CC1 [Compound 5b, 5-(2-Furyl)-8-(4-methylpiperidin-1-yl)-1,2,3,4-tetrahydropyrimido[4′,5′:4,5]thieno[2,3-c]isoquinoline] | 43.74
3 | c1coc(-c2nc3sc4c(N5CCOCC5)ncnc4c3c3c2CCCC3)c1 [Compound 5c, 5-(2-Furyl)-8-morpholin-4-yl-1,2,3,4-tetrahydropyrimido[4′,5′:4,5]thieno[2,3-c]isoquinoline] | 42.44
4 | CC(C)CNc1ncnc2c1sc1nc(-c3ccco3)c3c(c12)CCCC3 [Compound 5d, 5-(2-Furyl)-N-isobutyl-1,2,3,4-tetrahydropyrimido[4′,5′:4,5]thieno[2,3-c]isoquinolin-8-amine] | 42.58
5 | CCN(CC)CCNc1ncnc2c1sc1nc(-c3ccco3)c3c(c12)CCCC3 [Compound 5e, N,N-Diethyl-N′-[5-(2-furyl)-1,2,3,4-tetrahydropyrimido[4′,5′:4,5]thieno[2,3-c]isoquinolin-8-yl]ethane-1,2-diamine] | 42.44
6 | c1coc(-c2nc3sc4c(NCC5CCCO5)ncnc4c3c3c2CCCC3)c1 (centres unmarked) [Compound 5f, 5-(2-Furyl)-N-(tetrahydrofuran-2-ylmethyl)-1,2,3,4-tetrahydropyrimido[4′,5′:4,5]thieno[2,3-c]isoquinolin-8-amine] | 44.02
7 | CC(C)c1nc2oc3c(NCCO)ncnc3c2c2c1COC(C)(C)C2 [Compound 7a] | 43.50
8 | CC(C)c1nc2oc3c(NCCN(C)C)ncnc3c2c2c1COC(C)(C)C2 [Compound 7b] | 44.16
9 | CCN(CC)CCNc1ncnc2c1oc1nc(C(C)C)c3c(c12)CC(C)(C)OC3 [Compound 7c, N,N-Diethyl-N′-(5-isopropyl-2,2-dimethyl-1,4-dihydro-2H-pyrano[4″,3″:4′,5′]pyrido[3′,2′:4,5]furo[3,2-d]pyrimidin-8-yl)ethane-1,2-diamine] | 42.72
10 | CC(C)c1nc2oc3c(NCCN4CCOCC4)ncnc3c2c2c1COC(C)(C)C2 [Compound 7d] | 43.44
11 | COc1ccc(CCNc2ncnc3c2oc2nc(C(C)C)c4c(c23)CC(C)(C)OC4)cc1OC [Compound 7e, N-[2-(3,4-Dimethoxyphenyl)ethyl]-5-isopropyl-2,2-dimethyl-1,4-dihydro-2H-pyrano[4″,3″:4′,5′]pyrido[3′,2′:4,5]furo[3,2-d]pyrimidin-8-amine] | 44.00
12 | CC(C)c1nc2oc3c(NCC4CCCO4)ncnc3c2c2c1COC(C)(C)C2 (centres unmarked) [Compound 7f, 5-Isopropyl-2,2-dimethyl-N-(tetrahydrofuran-2-ylmethyl)-1,4-dihydro-2H-pyrano[4″,3″:4′,5′]pyrido[3′,2′:4,5]furo[3,2-d]pyrimidin-8-amine] | 42.82
13 | CC(C)c1nc2oc3c(NCc4ccco4)ncnc3c2c2c1COC(C)(C)C2 [Compound 7g, N-(2-Furylmethyl)-5-isopropyl-2,2-dimethyl-1,4-dihydro-2H-pyrano[4″,3″:4′,5′]pyrido[3′,2′:4,5]furo[3,2-d]pyrimidin-8-amine] | 43.32
14 | CC(C)c1nc2oc3c(NCc4cccnc4)ncnc3c2c2c1COC(C)(C)C2 [Compound 7h] | 43.20
15 | CC(C)c1nc2oc3c(NCCCN(C)C)ncnc3c2c2c1COC(C)(C)C2 [Compound 7i] | 44.64
16 | CC(C)Cc1nc2oc3c(NCCO)ncnc3c2c2c1COC(C)(C)C2 [Compound 7j, 2-[(5-Isobutyl-2,2-dimethyl-1,4-dihydro-2H-pyrano[4″,3″:4′,5′]pyrido[3′,2′:4,5]furo[3,2-d]pyrimidin-8-yl)amino]ethanol] | 43.20
17 | CC(C)Cc1nc2oc3c(NCCCO)ncnc3c2c2c1COC(C)(C)C2 [Compound 7k] | 42.70
18 | CCOC(=O)N1CCN(c2ncnc3c2sc2nc(C(C)C)c4c(c23)CC(C)(C)OC4)CC1 [Compound 7l, Ethyl 4-(5-isopropyl-2,2-dimethyl-1,4-dihydro-2H-pyrano[4″,3″:4′,5′]pyrido[3′,2′:4,5]thieno[3,2-d]pyrimidin-8-yl)piperazine-1-carboxylate] | 43.76
19 | CC(C)c1nc2sc3c(NCC4CCCO4)ncnc3c2c2c1COC(C)(C)C2 (centres unmarked) [Compound 7m, 5-Isopropyl-2,2-dimethyl-N-(tetrahydrofuran-2-ylmethyl)-1,4-dihydro-2H-pyrano[4″,3″:4′,5′]pyrido[3′,2′:4,5]thieno[3,2-d]pyrimidin-8-amine] | 43.06
20 | COc1cccc2c1C(=O)c1c(O)c3c(c(O)c1C2=O)C[C@@](O)(C(=O)CO)C[C@@H]3O[C@H]1C[C@H](N)[C@H](O)[C@H](C)O1 [Doxorubicin, doxorubicin, reference compound] | 43.41
